For 1 molecule, binding results are on record in PMC9930429, “Wogonin attenuates the pathogenicity of Streptococcus pneumoniae by double‐target inhibition of Pneumolysin and Sortase A” (Journal of Cellular and Molecular Medicine, 2023).

These are yes or no findings as the source states them, for the method shown. Some entries that bind do so weakly or less than the wild type.

This test has as its target T1, Pneumolysin (PLY) (Streptococcus pneumoniae), P0C2J9.
T1 chain: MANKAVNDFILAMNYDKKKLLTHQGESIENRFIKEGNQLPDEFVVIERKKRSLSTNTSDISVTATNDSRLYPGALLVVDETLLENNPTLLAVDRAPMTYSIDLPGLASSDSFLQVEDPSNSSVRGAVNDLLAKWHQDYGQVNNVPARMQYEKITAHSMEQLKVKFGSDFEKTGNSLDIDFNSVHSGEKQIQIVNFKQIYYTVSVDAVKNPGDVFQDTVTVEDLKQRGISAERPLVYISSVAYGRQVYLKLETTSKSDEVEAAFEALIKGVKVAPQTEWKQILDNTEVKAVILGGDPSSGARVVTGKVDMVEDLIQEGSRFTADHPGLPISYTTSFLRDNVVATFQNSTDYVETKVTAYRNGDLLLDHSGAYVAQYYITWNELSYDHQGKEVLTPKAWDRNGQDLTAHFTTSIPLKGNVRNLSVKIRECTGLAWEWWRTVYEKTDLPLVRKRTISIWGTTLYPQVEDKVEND
Kind of test: SDS-PAGE of oligomers with western blot; recombinant PLY with wogonin (0, 16, 32, 64 ug/mL) at 37 °C for 1 h; loading buffer without beta-mercaptoethanol, 10 min at 55 °C; 10% SDS-PAGE; oligomers detected with an anti-PLY monoclonal antibody; both purified. Conditions: remark: other sources report otherwise. On the technique in general: Immunoblotting shows a protein as a band on a membrane.

B1: Pneumolysin (PLY), P0C2J9 1-471 (protein)
chain: T1 chain
With B1, the binding result is given as “binds”.
